{
  "sequences": {"note": "Protein sequences, listed by entry. Tags and fused reporters are not part of them.", "UniProt Q9NZQ7": "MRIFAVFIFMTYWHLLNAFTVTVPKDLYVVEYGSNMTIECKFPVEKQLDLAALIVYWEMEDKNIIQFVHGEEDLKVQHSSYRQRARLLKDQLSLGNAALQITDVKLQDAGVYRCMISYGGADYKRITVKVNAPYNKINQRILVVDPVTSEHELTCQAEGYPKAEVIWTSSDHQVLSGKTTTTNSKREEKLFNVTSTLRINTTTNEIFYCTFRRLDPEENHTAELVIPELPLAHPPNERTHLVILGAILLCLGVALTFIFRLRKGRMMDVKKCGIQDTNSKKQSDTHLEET"},
  "source": "patent CN109265548A",
  "binders": {"B1": {"name": "抗PD-L1Nb15 (VHH)", "VHH": "QVQLVESGGGSVQAGGALRLSCAASGYTSTSNCMGWFRQAPGKEREGVAAIYTGGGSTYYADSVKGRFTISQDNAKNTVYLQMNSLKPEDTAMYYCAAGDLDPAEYSDYDPTVFNYWGQGTLVTVSS"}},
  "biological_target": "PD-L1(人) (human) (UniProt Q9NZQ7)",
  "test": "ELISA, antigen coated 0.5 μg per well, nanobody at 10 μg/mL, detection with rabbit anti-HA and HRP goat anti-rabbit",
  "note": "Results are given in words; binding and its absence hold for the method and conditions named. Some binding calls cover weakened binding; strength is not graded here.",
  "data": [
    {"binder": "B1", "values": [
      {"measurement": "binding", "value": "binds"}
    ]}
  ]
}
